In patent US20030148445A1 (NATIONAL JEWISH MEDICAL AND RESEARCH CENTER, published 2003):
Results are given in words; binding and its absence hold for the method and conditions named. In cells and extracts the contact can be indirect. Some entries that bind do so weakly or less than the wild type.

Amino acid sequences for entries named in this document (tags omitted).
UniProt O00463: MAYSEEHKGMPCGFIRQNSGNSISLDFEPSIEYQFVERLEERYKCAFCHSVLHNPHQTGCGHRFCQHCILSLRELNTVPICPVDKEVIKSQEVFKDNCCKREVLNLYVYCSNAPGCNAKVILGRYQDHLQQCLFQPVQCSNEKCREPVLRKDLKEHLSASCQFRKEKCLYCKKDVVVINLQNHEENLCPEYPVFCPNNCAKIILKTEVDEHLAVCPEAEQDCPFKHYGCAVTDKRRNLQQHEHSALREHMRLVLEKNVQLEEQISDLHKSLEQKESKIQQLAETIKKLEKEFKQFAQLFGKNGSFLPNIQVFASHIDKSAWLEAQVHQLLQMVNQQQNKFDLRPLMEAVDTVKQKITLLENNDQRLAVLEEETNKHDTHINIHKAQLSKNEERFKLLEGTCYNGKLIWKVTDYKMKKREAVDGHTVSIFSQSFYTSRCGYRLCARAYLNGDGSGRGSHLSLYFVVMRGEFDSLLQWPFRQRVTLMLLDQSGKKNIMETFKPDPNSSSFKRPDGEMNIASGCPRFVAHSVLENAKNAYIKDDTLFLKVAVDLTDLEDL

Legend:
TRAF5 [1] = molecular target: TRAF5 (UniProt O00463); experiment: co-immunoprecipitation with anti-Flag antibody, Western blot with anti-HA antibody
TRAF5 [2] = molecular target: TRAF5 (UniProt O00463); experiment: co-immunoprecipitation, Western blot (legend of FIG. 10B)

B1: C-terminal HA epitope-tagged BCMA (BCMA-HA) (receptor, not shown: small tags and cut ends)
chain: MLQMAGQCSQNEYFDSLLHACIPCQLRCSSNTPPLTCQRYCNASVTNSVKGTNAILWTCLGLSLIISLAVFVLMFLLRKISSEPLKDEFKNTGSGLLGMANIDLEKSRTGDEIILPRGLEYTVEECTCEDCIKSKPKVDSDHCFPLPAMEEGATILVTTKTNDYCKSLPAALSATEIEKSISAR
notes: also called HA-BCMA; B Cell Maturation Protein
With B1 the binding (TRAF5 [1]) was “binds” and the binding (TRAF5 [2]) was “binds”.
